Experimental data taken from publication PMC5080441, “A direct-sensing galactose chemoreceptor recently evolved in invasive strains of Campylobacter jejuni” (Nature Communications, 2016).
These are yes or no findings as the source states them, for the method shown. A result given as binding can be weak or reduced; the word gives no strength.

T1: CheV (Campylobacter jejuni) (UniProt Q0PBM1)
T1 sequence: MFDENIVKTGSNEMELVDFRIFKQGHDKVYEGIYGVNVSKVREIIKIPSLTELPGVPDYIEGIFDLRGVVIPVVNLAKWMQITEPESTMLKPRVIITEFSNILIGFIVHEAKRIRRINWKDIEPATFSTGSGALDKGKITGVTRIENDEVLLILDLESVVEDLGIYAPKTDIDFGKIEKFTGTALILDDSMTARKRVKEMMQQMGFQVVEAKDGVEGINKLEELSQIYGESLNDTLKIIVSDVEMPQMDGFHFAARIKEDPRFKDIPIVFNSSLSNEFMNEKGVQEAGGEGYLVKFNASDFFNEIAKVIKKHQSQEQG


How the values were obtained:
[1] = target: T1, CheV (Campylobacter jejuni); experiment: two-hybrid; yeast two-hybrid; AD-CcrG^sig as prey with BD fusions of the partner; as described in ref. 24
[2] = target: CcrG signalling domain (CcrG^sig), residues 562-707 of CcrG (Tlp11) (Campylobacter jejuni (strain 520)); experiment: two-hybrid; yeast two-hybrid; BD-CcrG^sig as bait; analysed on intermediate stringency medium containing 1 mM 3-AT to suppress autonomous activation by BD-CcrG^sig

Molecule | binding [1] | binding [2]
CcrG signalling domain (CcrG^sig), residues 562-707 of CcrG (Tlp11) (Campylobacter jejuni (strain 520)) (domain or fragment) | binds | 
CheV (protein, UniProt Q0PBM1 1-318) MFDENIVKTGSNEMELVDFRIFKQGHDKVYEGIYGVNVSKVREIIKIPSLTELPGVPDYIEGIFDLRGVVIPVVNLAKWMQITEPESTMLKPRVIITEFSNILIGFIVHEAKRIRRINWKDIEPATFSTGSGALDKGKITGVTRIENDEVLLILDLESVVEDLGIYAPKTDIDFGKIEKFTGTALILDDSMTARKRVKEMMQQMGFQVVEAKDGVEGINKLEELSQIYGESLNDTLKIIVSDVEMPQMDGFHFAARIKEDPRFKDIPIVFNSSLSNEFMNEKGVQEAGGEGYLVKFNASDFFNEIAKVIKKHQSQEQG |  | binds
CheW (protein, UniProt Q0PBM3 1-173) MSNEKLEQILQKQQTQMAGPDVDQREDDIIQLVGFVVGDEEYAIPILNIQEIIKPIEYTRVPSVPDYVLGVFNMRGNVMPLIDLAQRFHLGSSKMTPQTRYIVLRGETNGTGVGGNAGFVIDRLTEAIKIHRNRIDPPPETLVKDKGMIYGIGKRDENILTILKVEALLKREF |  | binds
